Source: PubChem BioAssay AID686937 (Drosophila RNAi Screening Center, 2013)
The deposit covers about 23,000 reagents; this is a random part of those with a known target gene and a result. 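Reduced-secretion tags in replicate 1 do not always agree with the z-scores; no criterion for assigning the tags was given.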 Not all columns of the deposit are shown. Not given: the amount of reagent.

- Purpose: 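Knock-downs that reduce output of a secreted reporter enzyme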 (primary screen)
- Cell system: Drosophila S2 cells expressing secreted horseradish peroxidase
- Reagents: long dsRNA against Drosophila genes
- Time to read-out: about 5.5 days (5 days dsRNA, then 12 h reporter induction)
- Challenge: reporter expression induced after 5 days of dsRNA, read 12 h later; inducer not stated
- Measured: 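After 5 days of dsRNA and 12 h of reporter induction, medium peroxidase read by chemiluminescence and scored as per-plate z-score; higher values mean more reporter released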
- Scale: z-score: higher = more reporter secreted into medium

mmd [DRSC19672] — z-score, replicate 1 = -2.37
mmd [DRSC19673] — z-score, replicate 1 = 0.21
mmd [DRSC20161] — z-score, replicate 1 = -0.12
CR15821 [DRSC08481] — z-score, replicate 1 = 0.38
CG31058 (retired record) [DRSC15840] — z-score, replicate 1 = -3.23; phenotype, replicate 1 = reduced secretion
Uch-L5R [DRSC19825] — z-score, replicate 1 = 0.17
CG16926 [DRSC06637] — z-score, replicate 1 = 0.19
CG8728 [DRSC07251] — z-score, replicate 1 = 0.02
GABA-B-R1 [DRSC22038] — z-score, replicate 1 = 0
CG33107 [DRSC21898] — z-score, replicate 1 = 0.22
l(2)37Cd [DRSC02069] — z-score, replicate 1 = 0.06
NetA [DRSC20261] — z-score, replicate 1 = 0.02
Map205 [DRSC16732] — z-score, replicate 1 = 0.05
CG9471 [DRSC16499] — z-score, replicate 1 = 0.15
Eaf [DRSC05050] — z-score, replicate 1 = -4.24; phenotype, replicate 1 = reduced secretion
Eaf [DRSC06052] — z-score, replicate 1 = 0.1
Eaf [DRSC22028] — z-score, replicate 1 = 0.38
CG43106 [DRSC04279] — z-score, replicate 1 = 0.48
Dred [DRSC11057] — z-score, replicate 1 = 0.29
Dred [DRSC11059] — z-score, replicate 1 = 0.53
GstD9 [DRSC14185] — z-score, replicate 1 = 0.09
Orc6 [DRSC07497] — z-score, replicate 1 = 0.11
E(z) [DRSC11147] — z-score, replicate 1 = 0.66
CG33704 [DRSC03838] — z-score, replicate 1 = 0.06
CG3061 [DRSC15460] — z-score, replicate 1 = 0.27
Trap1 [DRSC05019] — z-score, replicate 1 = 0.11
MME1 [DRSC02714] — z-score, replicate 1 = 0.43
Ufc1 [DRSC07156] — z-score, replicate 1 = 0.17
CG13733 [DRSC10061] — z-score, replicate 1 = 0.06
Mondo [DRSC02667] — z-score, replicate 1 = 0.33
Mondo [DRSC02668] — z-score, replicate 1 = -0.17
Mondo [DRSC22006] — z-score, replicate 1 = 0.19
CG15483 [DRSC02493] — z-score, replicate 1 = 0.09
CG9447 [DRSC05008] — z-score, replicate 1 = 0.31
mah [DRSC14645] — z-score, replicate 1 = 0.34
CG5377 [DRSC15783] — z-score, replicate 1 = -1.13
CR33221 [DRSC21201] — z-score, replicate 1 = 0.35
Icmt [DRSC09834] — z-score, replicate 1 = 0.15
CG31161 [DRSC16144] — z-score, replicate 1 = -2.02; phenotype, replicate 1 = reduced secretion
CG32277 [DRSC08196] — z-score, replicate 1 = 0.37

No new results follow: 7 of the entries above.
Dred [DRSC11059] — z-score, replicate 1 = 0.53
GstD9 [DRSC14185] — z-score, replicate 1 = 0.09
Orc6 [DRSC07497] — z-score, replicate 1 = 0.11
E(z) [DRSC11147] — z-score, replicate 1 = 0.66
CG33704 [DRSC03838] — z-score, replicate 1 = 0.06
CG3061 [DRSC15460] — z-score, replicate 1 = 0.27
Trap1 [DRSC05019] — z-score, replicate 1 = 0.11
